This assay concerns the target HA‐tagged c‐Myc mutant R346A (human) (UniProt P01106). The assay can be described thus: co-IP; HEK293T cells transfected with HA-c-Myc or HA-tagged mutants, 48 h later treated with WBC100 (2 uM) or DMSO in the presence of MG-132 (10 uM) for 4 h; NP40 lysis buffer; anti-HA magnetic beads, 4 °C overnight; blot for CHIP.

Protein sequences, listed by entry. Tags and fused reporters are not part of them. Lines headed by an entry give the natural chain unless they say otherwise; changes in a name come on top.
UniProt P01106: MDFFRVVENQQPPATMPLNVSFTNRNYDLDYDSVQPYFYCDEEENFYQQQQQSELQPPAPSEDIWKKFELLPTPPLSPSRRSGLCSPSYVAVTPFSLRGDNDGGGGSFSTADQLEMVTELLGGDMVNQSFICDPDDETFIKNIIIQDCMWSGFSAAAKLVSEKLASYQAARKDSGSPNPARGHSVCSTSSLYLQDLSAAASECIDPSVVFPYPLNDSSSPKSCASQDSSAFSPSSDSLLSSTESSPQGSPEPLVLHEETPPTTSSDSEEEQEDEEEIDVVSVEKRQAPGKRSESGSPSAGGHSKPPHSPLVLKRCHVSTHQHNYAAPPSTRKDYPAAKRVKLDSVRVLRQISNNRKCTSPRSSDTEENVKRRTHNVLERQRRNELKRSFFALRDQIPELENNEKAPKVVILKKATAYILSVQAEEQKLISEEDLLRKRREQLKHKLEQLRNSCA
UniProt Q9UNE7: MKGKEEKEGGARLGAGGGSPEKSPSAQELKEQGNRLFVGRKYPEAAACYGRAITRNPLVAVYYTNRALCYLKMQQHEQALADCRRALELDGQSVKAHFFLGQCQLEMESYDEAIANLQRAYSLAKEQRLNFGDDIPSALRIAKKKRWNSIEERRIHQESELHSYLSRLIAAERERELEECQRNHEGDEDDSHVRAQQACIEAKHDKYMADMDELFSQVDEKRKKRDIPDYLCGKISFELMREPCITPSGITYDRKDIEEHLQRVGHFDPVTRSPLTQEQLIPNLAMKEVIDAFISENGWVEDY

No constants are given. Whether binding was seen depends on the method and setting. Binding seen in cells or lysates may run through a third protein. Binding calls can cover weak binding; strength is not graded here.

“E3 ubiquitin ligase CHIP (from UniProt Q9UNE7 1-303) (enzyme)”: the binding entry is listed as “binds”.

The values are drawn from article PMC8922104.
